In patent publication US12116343B2, “Inhibitors of APOL1 and methods of using same” (Vertex Pharmaceuticals Incorporated, priority 2020, dated 2024):
The structures given here were assigned with low confidence; some may be wrong.

Protein sequences, listed by entry. Tags and fused reporters are not part of them. Residues count along the entry.
UniProt O14791, 28-398 S342G/I384M limits assumed: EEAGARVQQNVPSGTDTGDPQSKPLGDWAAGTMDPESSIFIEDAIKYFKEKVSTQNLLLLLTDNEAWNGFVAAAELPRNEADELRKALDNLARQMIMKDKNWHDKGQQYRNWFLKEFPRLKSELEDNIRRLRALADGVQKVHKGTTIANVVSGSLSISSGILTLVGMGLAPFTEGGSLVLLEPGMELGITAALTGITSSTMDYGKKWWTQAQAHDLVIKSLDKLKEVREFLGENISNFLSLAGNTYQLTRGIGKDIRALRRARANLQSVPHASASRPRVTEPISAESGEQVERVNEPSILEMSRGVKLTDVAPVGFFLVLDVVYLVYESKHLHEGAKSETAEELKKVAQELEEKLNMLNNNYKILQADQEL

Biological target: APOL1 G1 Protein (Homo sapiens, UniProt O14791, I384M/S342G)
Assay: Trypanosoma brucei brucei lysis assay using APOL1 recombinant protein (AlamarBlue viability)
Assay type: cell-based
Details: read-out: Trypanosoma Assay (IC50)
From the text: Trypanosoma brucei brucei is a blood stream parasite to which human, gorillas and baboon are immune due to the presence of the APOL1 protein in their HDL particles. The protein is uptaken by the parasite via the TbHpHb receptor located in its flagellar pocket and is bonded by the Hpr protein contained in the HDL particles which triggers the receptor endocytosis by the parasite.
Following endocytosis, the formed vesicle containing the HDL particle matures from early to late endosome, and subsequently to lysosome. […]
Briefly, the AlamarBlue active compound, the resazurin, a blue, water soluble, non-toxic and cell permeable molecule, which can be followed by absorbance, is reduced by various metabolic pathways into resorufin, a red compound which can be followed by either absorbance or fluorescence. […]
Assay Ready Plates (ARPs) • ARPs comes in two formats: • […] final top concentration with a 2.5 fold dilution down. • […] final top concentration with a 3 fold dilution down. • Both have a 10 point Dose response. • 0.1% DMSO final in the Black Assay Plate. • Compounds are diluted 1000 fold in the Black Assay Plate. • Each plate is designed for 14 compounds in duplicate. • In the final Black Assay Plate: […]

SMILES: CC(O)[C@H](CO)NC(=O)[C@H]1C[C@H](c2c(-c3ccc(F)cc3)[nH]c3c(F)cc(F)cc32)C1 (stereo partly shown)
- IC50: < 250 nM
